The source of these data is publication PMC5302977.

Amino acid sequences for entries named in this document (tags omitted).
UniProt O14746: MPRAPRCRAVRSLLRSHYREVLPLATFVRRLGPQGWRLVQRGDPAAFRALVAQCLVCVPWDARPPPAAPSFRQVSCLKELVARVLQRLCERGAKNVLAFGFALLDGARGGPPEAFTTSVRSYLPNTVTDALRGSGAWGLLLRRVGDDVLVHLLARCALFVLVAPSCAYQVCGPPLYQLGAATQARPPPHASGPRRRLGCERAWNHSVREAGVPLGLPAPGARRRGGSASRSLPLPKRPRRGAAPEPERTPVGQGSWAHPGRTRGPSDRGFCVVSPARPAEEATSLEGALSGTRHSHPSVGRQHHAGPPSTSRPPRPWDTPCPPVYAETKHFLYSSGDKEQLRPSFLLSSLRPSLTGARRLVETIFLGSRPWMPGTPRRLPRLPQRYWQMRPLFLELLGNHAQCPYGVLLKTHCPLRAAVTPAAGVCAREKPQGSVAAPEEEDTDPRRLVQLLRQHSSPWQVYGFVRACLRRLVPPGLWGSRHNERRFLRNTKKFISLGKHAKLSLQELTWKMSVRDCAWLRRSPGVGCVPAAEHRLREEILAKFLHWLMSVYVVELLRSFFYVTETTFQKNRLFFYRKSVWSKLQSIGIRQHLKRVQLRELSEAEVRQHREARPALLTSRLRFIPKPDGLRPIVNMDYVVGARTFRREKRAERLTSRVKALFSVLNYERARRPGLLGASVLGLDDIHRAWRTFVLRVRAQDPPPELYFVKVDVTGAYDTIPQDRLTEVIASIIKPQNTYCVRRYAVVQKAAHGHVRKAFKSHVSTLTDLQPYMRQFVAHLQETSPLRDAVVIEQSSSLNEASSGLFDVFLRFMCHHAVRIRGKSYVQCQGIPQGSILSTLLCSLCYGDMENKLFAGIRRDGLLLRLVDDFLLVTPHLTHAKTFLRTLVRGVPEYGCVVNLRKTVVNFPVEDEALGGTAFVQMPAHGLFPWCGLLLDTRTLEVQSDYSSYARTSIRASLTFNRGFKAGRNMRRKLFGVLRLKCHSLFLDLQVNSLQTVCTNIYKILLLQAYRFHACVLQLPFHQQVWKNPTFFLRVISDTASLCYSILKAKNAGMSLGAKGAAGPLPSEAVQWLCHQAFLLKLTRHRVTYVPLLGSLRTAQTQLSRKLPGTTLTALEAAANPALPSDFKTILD
UniProt P17931: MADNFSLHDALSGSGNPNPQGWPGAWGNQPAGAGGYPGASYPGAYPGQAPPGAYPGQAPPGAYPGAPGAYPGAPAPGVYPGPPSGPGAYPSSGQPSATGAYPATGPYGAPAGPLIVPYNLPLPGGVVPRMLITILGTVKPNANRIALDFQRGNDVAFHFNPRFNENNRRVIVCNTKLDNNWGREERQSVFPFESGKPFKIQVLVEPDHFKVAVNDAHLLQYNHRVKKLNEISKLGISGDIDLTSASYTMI

The target in this test is HA-hTERT (human Telomerase Reverse Transcriptase) (human) (UniProt O14746). As to the kind of experiment: co-IP; HEK293 cells co-transfected with Flag-galectin-3 constructs and HA-hTERT; lysate with 750 ug protein pre-cleared, incubated with 1 ug anti-HA or anti-FLAG overnight at 4°C, protein-A/G agarose beads, washed 3 times in RIPA buffer; Western blot; mouse IgG as negative control.

These are yes or no findings as the source states them, for the method shown. In cells and extracts the contact can be indirect. Some binding calls cover weakened binding; strength is not graded here.

Turning to “Flag-galectin-3 (1-250 aa, full length) (from UniProt P17931 1-250)”, the binding entry is listed as “binds”.
